Laboratory results taken from patent US20080119412A1, “Polypeptides for Modulating Binding of Trp Channel Proteins and Trp- Associated Proteins” (NoNO Inc., priority 2003, published 2008).
Part of at least one peptide drawing is inferred or uncertain, most often the ends. Residues, ends and D or L forms follow the SMILES beside them. *: point of attachment. Biotin = O=C1N[C@H]2[C@H](CS[C@H]2CCCCC(=O)*)N1

Tests used:
ZO-1 d2 [1] = target: T1, ZO-1 d2 (Homo sapiens, UniProt Q07157, DEL264-264); assay: G3 assay titration, GST-PDZ fusion / biotinylated peptide; type: binding; conditions: Table 10, titration of peptides with ZO-1 d2
T1 construct: made in house; host or cells: E. coli (DH5alpha, BL21 or JM109)
T1 sequence (Q07157 with tags, fused parts or gaps DEL264-264): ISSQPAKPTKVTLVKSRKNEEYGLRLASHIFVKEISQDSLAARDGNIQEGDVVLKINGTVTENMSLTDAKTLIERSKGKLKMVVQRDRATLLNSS
Method: (§1) The G3 assay is identical to the G0 assay with the following exceptions. The peptides are typically present at 0.1 μM rather than 20 μM. The peptides are also pre-incubated with the HRP-streptavidin prior to adding to the assay plate. In the G0 assay, free peptide is incubated with the PDZ proteins prior to the addition of the HRP-streptavidin. Thus, for the G0 assay one can lose signal if the bound peptide dissociates from the PDZ protein prior to the addition of the HRP-streptavidin. In the G3 modified assay the HRP-streptavidin/peptide complex is added to the plate in one step, thus increasing the likelihood that all the bound peptide will be bound to HRP-streptavidin. The G3 modified assay increases the chance of observing weak interactions.
(§2) This example describes assays to identify binding between TRPM7 and PDZ domains. GST-PDZ fusions are produced that each contain an entire PDZ domain (or multiple PDZ domains), the collection encompassing approximately 90% of all PDZ domains identified in the human genome. (See Table 5 and Section V (PDZ Proteins and PL Protein Interactions Disclosure). Biotinylated peptide corresponding to 11 residues of Tat coupled to the C-terminal 9 amino acids of TRPM7 ([…]; SEQ ID NO:258) is synthesized and purified by HPLC.
(§3) • Nunc MaxiSorp 96 well Immuno-plate, Nunc • PBS pH 7.4 (phosphate buffered saline, 8 g NaCl, 0.29 g KCl, 1.44 g Na2HPO4, 0.24 g KH2PO4, add H2O to 1 liter and pH 7.4; 0.2 μm filter) • Assay Buffer: 2% BSA in PBS (20 g of bovine serum albumin per liter PBS, fraction V, ICN Biomedicals, cat#IC15142983 • Goat anti-GST polyclonal Ab, stock 5 mg/ml, stored at 4° C., Amersham Pharmacia cat#27-4577-01 • Dilute 1:1000 in PBS, final concentration 5 μg/ml. • HRP-Streptavidin, 2.5 mg/2 ml stock stored at 4° C., Zymed cat#43-4323, dilute 1:2000 into Assay buffer, final concentration of […] • Wash Buffer, PBS • Biotinylated peptides (HPLC purified, stock solution stored in −20° C. freezer) • GST-PRISM proteins (stock stored at −80° C., after 1st thaw store in −10° C. freezer) • TMB (3,3′,5,5′, teramethylbensidine), tablets, Sigma cat.#T5525 • Per plate, dissolve 1 tablet in 1 ml DMSO, add 9 ml Citrate/Phosphate buffer pH 5.4 and 2 μL H2O2 • 0.1 M H2SO4, Sigma cat.#S1526 • 12-w multichannel pipettor & tips • 50 ml reagent reservoirs, Costar#4870 • 50, 15 ml polypropylene conical tubes • Costar Transtar 96 Costar #7605 • Transtar 96 Cartridge Costar #7610 • Molecular Devices microplate reader (450 & 650 nm filters) with SoftMax Pro software *When using reagents stored at or 4° C. or −20° C., remove & keep on ice
(§4) • 1. Coat plate with 100 μl of 5 μg/ml anti-GST, overnight at 4° C. • 2. Dump contents of plate & out tap dry on paper towels • 3. Block with 200 μl Assay Buffer for 2 hrs at room temperature • 4. Prepare proteins at 5 μg/ml in Assay Buffer • 5. Wash 3× with cold PBS (4° C.), avoiding letting the plates dry out • 6. Add proteins at 50 μl per well, incubate 1 to 2 hrs at 4° C. • 7. Prepare peptides to desired concentration in Assay Buffer • 8. Wash 3× with cold PBS (4° C.), avoiding letting the plates dry out • 9. Add HRP-Streptavidin/peptide complex [prepared by incubating for 20 minutes at room temperature HRP-Streptavidin (1:2000) with the desired biotin-peptide concentration for 20 minutes at room temperature] at 50 μl per well on ice • 10. Place at room temperature for exactly 30 minutes • 11. Promptly wash 5× with PBS at room temperature • 12. Add 100 μl/well TMB substrate (write time on plate) • 13. Incubate in dark at room temperature for a maximum of 30 minutes • 14. Read plate at 25 minutes (650 nm), optional • 15. Stop reaction with 100 μl of 0.18 M H2SO4, 30 minutes after adding TMB • Take last reading at 450 nm soon after stopping reaction
(§5) The G3 assay was performed using 0.1 μM peptide representing 11 amino acids of Tat fused to the final 9 amino acids of TRPM7 ([…]; SEQ ID NO:258). […]

INADL d3 = target: T2, INADL d3 (Homo sapiens, UniProt Q8NI35); assay: as above; type: binding; conditions: Table 10, titration of peptides with INADL d3
T2 construct: made in house; host or cells: E. coli (DH5alpha, BL21 or JM109)
T2 sequence (Q8NI35 with tags, fused parts or gaps): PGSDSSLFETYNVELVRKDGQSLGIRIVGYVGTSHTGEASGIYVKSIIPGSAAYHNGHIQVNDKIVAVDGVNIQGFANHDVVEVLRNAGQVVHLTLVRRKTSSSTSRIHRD
Method: as §1, §2, §3, §4, §5

ZO-1 d2 [2] = target: T1, ZO-1 d2; assay: G assay, peptide binding to GST-PDZ fusion (Table 11); conditions: Table 11, titrations or binding assays

Structure (SMILES)	ODmax (450 nm) (ZO-1 d2 [1])	ODmax (450 nm) (INADL d3)	PDZ domain bound (ZO-1 d2 [2])
CC[C@H](C)[C@H](NC(=O)[C@H](CO)NC(=O)[C@@H](NC(=O)[C@H](C)NC(=O)[C@H](C)NC(=O)[C@@H](NC(=O)[C@H](C)NC(=O)[C@H](CCCNC(=N)N)NC(=O)[C@H](CCCNC(=N)N)NC(=O)[C@H](CCCNC(=N)N)NC(=O)[C@H](CCC(N)=O)NC(=O)[C@H](CCCNC(=N)N)NC(=O)[C@H](CCCNC(=N)N)NC(=O)[C@H](CCCCN)NC(=O)[C@H](CCCCN)NC(=O)[C@H](CCCNC(=N)N)NC(=O)CNC(=O)[C@H](Cc1ccc(O)cc1)NC(=O)CCCC[C@@H]1SC[C@@H]2NC(=O)N[C@@H]21)C(C)C)[C@@H](C)O)C(=O)N[C@@H](CC(N)=O)C(=O)N[C@@H](CC(C)C)C(=O)O [Peptide 1791] (Biotin-YGRKKRRQRRRAVAATSINL-OH)	2.50	0.09	ZO-1 D2
CC[C@H](C)[C@H](NC(=O)[C@H](CCCCN)NC(=O)[C@H](CCCNC(=N)N)NC(=O)[C@H](CC(=O)O)NC(=O)CNC(=O)[C@H](CCCNC(=N)N)NC(=O)[C@H](C)NC(=O)[C@H](CCCNC(=N)N)NC(=O)[C@H](CCCNC(=N)N)NC(=O)[C@H](CCCNC(=N)N)NC(=O)[C@H](CCC(N)=O)NC(=O)[C@H](CCCNC(=N)N)NC(=O)[C@H](CCCNC(=N)N)NC(=O)[C@H](CCCCN)NC(=O)[C@H](CCCCN)NC(=O)[C@H](CCCNC(=N)N)NC(=O)CNC(=O)[C@H](Cc1ccc(O)cc1)NC(=O)CCCC[C@@H]1SC[C@@H]2NC(=O)N[C@@H]21)C(=O)N[C@@H](CCCNC(=N)N)C(=O)N[C@H](C(=O)O)C(C)C [Peptide 1836] (Biotin-YGRKKRRQRRRARGDRKIRV-OH)	2.60	0.30	
CC(C)[C@H](NC(=O)[C@@H]1CCCN1C(=O)[C@@H](NC(=O)[C@H](CCCCN)NC(=O)[C@H](CCCNC(=N)N)NC(=O)[C@H](CC(=O)O)NC(=O)CNC(=O)[C@H](CCCNC(=N)N)NC(=O)[C@H](C)NC(=O)[C@H](CCCNC(=N)N)NC(=O)[C@H](CCCNC(=N)N)NC(=O)[C@H](CCCNC(=N)N)NC(=O)[C@H](CCC(N)=O)NC(=O)[C@H](CCCNC(=N)N)NC(=O)[C@H](CCCNC(=N)N)NC(=O)[C@H](CCCCN)NC(=O)[C@H](CCCCN)NC(=O)[C@H](CCCNC(=N)N)NC(=O)CNC(=O)[C@H](Cc1ccc(O)cc1)NC(=O)CCCC[C@@H]1SC[C@@H]2NC(=O)N[C@@H]21)C(C)C)C(=O)O [Peptide 1841] (Biotin-YGRKKRRQRRRARGDRKVPV-OH)	2.10	0.20	ZO-l D2
